From patent publication US20200405832A1 (MINERVA BIOTECHNOLOGIES, published 2020) come the findings set out here.

No constants are given. Whether binding was seen depends on the method and setting. A result given as binding can be weak or reduced; the word gives no strength.

In the assay the target is MUC1* as on MUC1* positive bone marrow cells (hematopoietic stem cells of the bone marrow) (Homo sapiens (Human)). The assay is described as follows: FACS on bone marrow cells.

B1: mouse monoclonal antibody MN-C3 (antibody, V domains shown)
VH: QVQLQQSGPELVRPGVSVKISCKGSGYRFTDYAMNWVKQSHAKSLEWIGVISTFSGNTNFNQKFKGKATMTVDKSSSTAYMELARLTSEDSAMYYCARSDYYGPYFDYWGQGTTLTVSS
VL: DVLMTQTPLSLPVSLGDQASISCRSSQTIVHSNGNTYLEWYLQKPGQSPKLLIYKVSNRFSGVPDRFSGSGSGTDFTLKINRVEAEDLGVYYCFQGSHVPFTFGSGTKLEIK
notes: also called Min-C3
For B1, the binding entry is on record as “binds”.

B2: mouse monoclonal antibody MN-E6 (antibody, V domains shown)
VH: EVKVVESGGDLVKPGGSLKLSCVVSGFTFSRYGMSWVRQTPGKRLEWVATISGGGTYIYYPDSVKGRFTISRDNAKNTLYLQMSSLKSEDTAMYHCTRDNYGRNYDYGMDYWGQGTSVTVSS
VL: QIVLTQSPAIMSASPGEEVTLTCSATSSVSYIHWFQQRPGTSPKLWIYSTSNLASGVPVRFSGSGYGTSYSLTISRMEAEDAATYYCQQRSSSPFTFGSGTKLEIK
notes: also called Min-E6
In the case of B2, the binding result is “no binding”.
